Here are results for four molecules from article doi:10.1101/2021.08.27.457973.

What all share (assay): co-IP
One assay concerns the target T1, TMEM192^ΔC34-GFP (human) (UniProt Q8IY95).
T1 sequence: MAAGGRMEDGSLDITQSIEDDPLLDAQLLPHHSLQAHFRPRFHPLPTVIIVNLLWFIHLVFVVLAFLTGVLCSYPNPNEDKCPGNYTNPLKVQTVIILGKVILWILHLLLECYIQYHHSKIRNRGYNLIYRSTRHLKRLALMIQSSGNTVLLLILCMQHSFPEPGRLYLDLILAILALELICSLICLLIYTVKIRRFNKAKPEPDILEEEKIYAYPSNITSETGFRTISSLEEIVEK

Another assay addresses T2, TMEM192-GFP (human) (UniProt Q8IY95).
T2 sequence: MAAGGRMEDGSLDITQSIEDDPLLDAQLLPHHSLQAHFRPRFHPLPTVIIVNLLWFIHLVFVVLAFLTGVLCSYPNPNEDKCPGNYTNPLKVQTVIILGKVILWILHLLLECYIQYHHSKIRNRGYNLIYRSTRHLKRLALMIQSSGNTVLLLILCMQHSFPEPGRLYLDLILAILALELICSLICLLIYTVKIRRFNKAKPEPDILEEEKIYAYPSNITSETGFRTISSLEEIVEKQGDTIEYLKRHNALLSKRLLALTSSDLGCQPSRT

In a further assay the target is T3, TMEM192^ΔC73-GFP (human) (UniProt Q8IY95).
T3 sequence: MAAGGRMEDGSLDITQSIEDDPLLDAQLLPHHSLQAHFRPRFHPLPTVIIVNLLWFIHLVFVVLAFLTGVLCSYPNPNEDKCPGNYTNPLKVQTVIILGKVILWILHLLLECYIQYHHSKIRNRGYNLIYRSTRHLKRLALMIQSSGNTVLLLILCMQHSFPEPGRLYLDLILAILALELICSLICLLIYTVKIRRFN

The target in a further assay is T4, GFP-TMEM192^ΔN40 (human) (UniProt Q8IY95).
T4 sequence: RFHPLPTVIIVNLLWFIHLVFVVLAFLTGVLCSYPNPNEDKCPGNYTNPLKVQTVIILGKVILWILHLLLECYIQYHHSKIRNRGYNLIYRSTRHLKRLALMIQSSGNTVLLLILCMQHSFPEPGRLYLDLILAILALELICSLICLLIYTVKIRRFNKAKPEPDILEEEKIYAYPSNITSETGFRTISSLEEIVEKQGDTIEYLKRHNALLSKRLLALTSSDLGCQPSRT

For another assay, the target named is T5, STK11IP-GFP (mouse) (UniProt Q3TAA7).
T5 sequence: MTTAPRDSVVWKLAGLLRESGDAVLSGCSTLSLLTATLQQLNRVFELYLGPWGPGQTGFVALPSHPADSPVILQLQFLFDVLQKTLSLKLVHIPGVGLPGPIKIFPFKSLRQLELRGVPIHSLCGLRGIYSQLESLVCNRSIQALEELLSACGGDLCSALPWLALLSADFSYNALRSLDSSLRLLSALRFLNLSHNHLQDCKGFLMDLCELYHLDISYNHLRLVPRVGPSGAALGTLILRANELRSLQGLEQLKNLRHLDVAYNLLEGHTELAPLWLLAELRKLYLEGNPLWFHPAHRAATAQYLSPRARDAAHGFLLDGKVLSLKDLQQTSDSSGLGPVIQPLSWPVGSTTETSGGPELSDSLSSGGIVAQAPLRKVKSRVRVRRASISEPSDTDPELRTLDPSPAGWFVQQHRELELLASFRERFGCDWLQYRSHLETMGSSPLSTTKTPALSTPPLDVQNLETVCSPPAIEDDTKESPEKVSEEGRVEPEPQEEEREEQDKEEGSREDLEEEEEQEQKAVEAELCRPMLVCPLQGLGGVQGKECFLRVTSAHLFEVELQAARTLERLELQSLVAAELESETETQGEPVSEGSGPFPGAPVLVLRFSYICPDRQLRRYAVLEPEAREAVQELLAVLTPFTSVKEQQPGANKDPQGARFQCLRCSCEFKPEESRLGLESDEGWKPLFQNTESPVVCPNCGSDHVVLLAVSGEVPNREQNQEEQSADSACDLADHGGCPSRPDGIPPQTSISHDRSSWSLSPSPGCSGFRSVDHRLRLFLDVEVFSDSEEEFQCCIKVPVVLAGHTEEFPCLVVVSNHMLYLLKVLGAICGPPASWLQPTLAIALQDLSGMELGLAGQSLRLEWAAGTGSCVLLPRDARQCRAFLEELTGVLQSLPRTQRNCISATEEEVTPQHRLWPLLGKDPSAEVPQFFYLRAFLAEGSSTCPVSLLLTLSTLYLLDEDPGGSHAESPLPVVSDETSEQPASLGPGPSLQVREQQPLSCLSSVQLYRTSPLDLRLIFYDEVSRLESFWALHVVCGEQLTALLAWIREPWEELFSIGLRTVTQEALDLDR

These are yes or no findings as the source states them, for the method shown. In cells and extracts the contact can be indirect. Some binding calls cover weakened binding; strength is not graded here. Sequences can lack the tags named with a protein.

B1: STK11IP-HA (protein, UniProt Q3TAA7 1-1072)
chain: MTTAPRDSVVWKLAGLLRESGDAVLSGCSTLSLLTATLQQLNRVFELYLGPWGPGQTGFVALPSHPADSPVILQLQFLFDVLQKTLSLKLVHIPGVGLPGPIKIFPFKSLRQLELRGVPIHSLCGLRGIYSQLESLVCNRSIQALEELLSACGGDLCSALPWLALLSADFSYNALRSLDSSLRLLSALRFLNLSHNHLQDCKGFLMDLCELYHLDISYNHLRLVPRVGPSGAALGTLILRANELRSLQGLEQLKNLRHLDVAYNLLEGHTELAPLWLLAELRKLYLEGNPLWFHPAHRAATAQYLSPRARDAAHGFLLDGKVLSLKDLQQTSDSSGLGPVIQPLSWPVGSTTETSGGPELSDSLSSGGIVAQAPLRKVKSRVRVRRASISEPSDTDPELRTLDPSPAGWFVQQHRELELLASFRERFGCDWLQYRSHLETMGSSPLSTTKTPALSTPPLDVQNLETVCSPPAIEDDTKESPEKVSEEGRVEPEPQEEEREEQDKEEGSREDLEEEEEQEQKAVEAELCRPMLVCPLQGLGGVQGKECFLRVTSAHLFEVELQAARTLERLELQSLVAAELESETETQGEPVSEGSGPFPGAPVLVLRFSYICPDRQLRRYAVLEPEAREAVQELLAVLTPFTSVKEQQPGANKDPQGARFQCLRCSCEFKPEESRLGLESDEGWKPLFQNTESPVVCPNCGSDHVVLLAVSGEVPNREQNQEEQSADSACDLADHGGCPSRPDGIPPQTSISHDRSSWSLSPSPGCSGFRSVDHRLRLFLDVEVFSDSEEEFQCCIKVPVVLAGHTEEFPCLVVVSNHMLYLLKVLGAICGPPASWLQPTLAIALQDLSGMELGLAGQSLRLEWAAGTGSCVLLPRDARQCRAFLEELTGVLQSLPRTQRNCISATEEEVTPQHRLWPLLGKDPSAEVPQFFYLRAFLAEGSSTCPVSLLLTLSTLYLLDEDPGGSHAESPLPVVSDETSEQPASLGPGPSLQVREQQPLSCLSSVQLYRTSPLDLRLIFYDEVSRLESFWALHVVCGEQLTALLAWIREPWEELFSIGLRTVTQEALDLDR
Take B1: the binding entry is recorded as “no binding” with TMEM192^ΔC34-GFP (human), “binds” in the assay with TMEM192-GFP (human), “no binding” with TMEM192^ΔC73-GFP (human) and “binds weakly” with GFP-TMEM192^ΔN40 (human).

B2: HA-STK11IP^472-1072 (domain or fragment, UniProt Q3TAA7 472-1072)
chain: AIEDDTKESPEKVSEEGRVEPEPQEEEREEQDKEEGSREDLEEEEEQEQKAVEAELCRPMLVCPLQGLGGVQGKECFLRVTSAHLFEVELQAARTLERLELQSLVAAELESETETQGEPVSEGSGPFPGAPVLVLRFSYICPDRQLRRYAVLEPEAREAVQELLAVLTPFTSVKEQQPGANKDPQGARFQCLRCSCEFKPEESRLGLESDEGWKPLFQNTESPVVCPNCGSDHVVLLAVSGEVPNREQNQEEQSADSACDLADHGGCPSRPDGIPPQTSISHDRSSWSLSPSPGCSGFRSVDHRLRLFLDVEVFSDSEEEFQCCIKVPVVLAGHTEEFPCLVVVSNHMLYLLKVLGAICGPPASWLQPTLAIALQDLSGMELGLAGQSLRLEWAAGTGSCVLLPRDARQCRAFLEELTGVLQSLPRTQRNCISATEEEVTPQHRLWPLLGKDPSAEVPQFFYLRAFLAEGSSTCPVSLLLTLSTLYLLDEDPGGSHAESPLPVVSDETSEQPASLGPGPSLQVREQQPLSCLSSVQLYRTSPLDLRLIFYDEVSRLESFWALHVVCGEQLTALLAWIREPWEELFSIGLRTVTQEALDLDR
As for B2, in the assay with TMEM192-GFP (human), the binding result is “no binding”.

B3: STK11IP^1-600-HA (domain or fragment, UniProt Q3TAA7 1-600)
chain: MTTAPRDSVVWKLAGLLRESGDAVLSGCSTLSLLTATLQQLNRVFELYLGPWGPGQTGFVALPSHPADSPVILQLQFLFDVLQKTLSLKLVHIPGVGLPGPIKIFPFKSLRQLELRGVPIHSLCGLRGIYSQLESLVCNRSIQALEELLSACGGDLCSALPWLALLSADFSYNALRSLDSSLRLLSALRFLNLSHNHLQDCKGFLMDLCELYHLDISYNHLRLVPRVGPSGAALGTLILRANELRSLQGLEQLKNLRHLDVAYNLLEGHTELAPLWLLAELRKLYLEGNPLWFHPAHRAATAQYLSPRARDAAHGFLLDGKVLSLKDLQQTSDSSGLGPVIQPLSWPVGSTTETSGGPELSDSLSSGGIVAQAPLRKVKSRVRVRRASISEPSDTDPELRTLDPSPAGWFVQQHRELELLASFRERFGCDWLQYRSHLETMGSSPLSTTKTPALSTPPLDVQNLETVCSPPAIEDDTKESPEKVSEEGRVEPEPQEEEREEQDKEEGSREDLEEEEEQEQKAVEAELCRPMLVCPLQGLGGVQGKECFLRVTSAHLFEVELQAARTLERLELQSLVAAELESETETQGEPVSEGSGPFPG
Consider B3, for which the binding entry with TMEM192-GFP (human) is reported as “binds”.

B4: TMEM192-HA (protein, UniProt Q8IY95 1-271)
chain: MAAGGRMEDGSLDITQSIEDDPLLDAQLLPHHSLQAHFRPRFHPLPTVIIVNLLWFIHLVFVVLAFLTGVLCSYPNPNEDKCPGNYTNPLKVQTVIILGKVILWILHLLLECYIQYHHSKIRNRGYNLIYRSTRHLKRLALMIQSSGNTVLLLILCMQHSFPEPGRLYLDLILAILALELICSLICLLIYTVKIRRFNKAKPEPDILEEEKIYAYPSNITSETGFRTISSLEEIVEKQGDTIEYLKRHNALLSKRLLALTSSDLGCQPSRT
For the molecule B4, the binding entry with STK11IP-GFP (mouse) was “binds”.
